These results are taken from PubChem BioAssay AID1487 (National Center for Advancing Translational Sciences (NCATS), 2009).

This is one part of the list. The main result of the screen is listed elsewhere. These columns were measured beside it and carry no call. The list favours compounds with an active or inconclusive main result. Words in brackets tell the shape of the fitted curve; partial curves, single points and poor fits give uncertain potencies.

A short description of the assay: qHTS Assay for Modulators of Lamin A Splicing. The settings on record: HeLa LMNA splicing GFP/RFP minigene ratio, 48 h. The method in brief: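 S3 HeLa cells stably expressing lamin A-EGFP splicing minigene plus DsRed2, 600 cells/well, 48 h compound exposure at 37C. Laser-scanning cytometry; analysed as GFP (500-530 nm)/RFP (575-640 nm) total intensity ratio; 0.5% DMSO vehicle.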

The mark [1] stands for this setting: measured here: GFP splicing reporter channel.
Setting [2] is: measured here: RFP viability control channel.

Take `Cc1ccc(-c2nnc(-c3ccccc3)c(N3CCOCC3)n2)cc1`: the AC50 runs as follows: under setting [1], 35.5 µM [falling, single point]; under setting [2], 25.1 µM [falling, single point].

As for `O=S(=O)(Cc1ccccc1)N1CCN(Cc2ccc3c(c2)OCO3)CC1`, under setting [2], the AC50 was 14.1 µM [rising, single point].

`CC(C)[C@H](NC(=O)OCc1ccccc1)C(=O)N[C@H](C=O)Cc1ccccc1`: the half-maximal activity concentration (AC50) under setting [1] is 35.5 µM [falling, single point].

As to `Cc1cc(C)c(S(=O)(=O)Nc2ccc(-c3ccc(N4CCCCC4)nn3)cc2)c(C)c1`, the AC50 by setting is: under setting [1], 1.41 µM [falling, full curve, poor fit]; under setting [2], 0.0178 µM [falling, full curve, poor fit].

Take `CCOc1ccc(S(=O)(=O)Nc2ccc3c(c2)c2c(n3S(=O)(=O)c3ccc(OCC)cc3)CCCC2=O)cc1`: the AC50 was 4.47 µM [falling, partial curve, poor fit] under setting [1] and 2.82 µM [falling, partial curve, poor fit] under setting [2].

Regarding `CCNc1ccc2noc3c2c1C(=O)c1ccccc1-3`, the AC50 under setting [2] is 14.1 µM [rising, single point].

Consider `COc1cc(/C=N/OCC(=O)NC2CCCCC2C)ccc1OCc1ccc(Cl)cc1` (stereo not given), for which the AC50 was 6.31 µM [rising, partial curve] under setting [1] and 14.1 µM [rising, partial curve] under setting [2].

Turning to `O=C(O)Cc1cccc2ccccc12`, the AC50 under setting [1] was 0.447 µM [falling, full curve, poor fit].

Regarding `COc1cc(C2C(C#N)=C(C)NC3=C2C(=O)c2ccccc23)cc(OC)c1OC` (stereo not given), the AC50 under setting [1] is 0.631 µM [rising, single point] and the AC50 under setting [2] is 0.794 µM [rising, full curve].

As for `CCOC(=O)C1CCN(C(c2cc3ccc(C)c(C)c3[nH]c2=O)c2nnnn2C2CCCCC2)CC1` (stereo not given), under setting [1], the AC50 was 17.8 µM [rising, single point].

`CCn1c(CN2CCCCC2)nc2cc(NC(=O)COc3cc(C)ccc3C(C)C)ccc21`: the AC50 was 35.5 µM [falling, partial curve] under setting [1] and 35.5 µM [falling, partial curve, poor fit] under setting [2].

Take `Cc1ccc(N(C)S(=O)(=O)c2ccc(-c3cnc(C4CC4)o3)cc2)cc1`: the AC50 by setting is: under setting [1], 0.0355 µM [rising, full curve, poor fit]; under setting [2], 0.891 µM [rising, full curve].

As to `COc1ccc(N(C)S(=O)(=O)c2cccc(C(=O)Nc3ccc(OC)nc3)c2)cc1`, the AC50 under setting [2] was 14.1 µM [rising, partial curve].

As to `O=C(Cc1c[nH]c2ccccc12)NCc1ccccc1F`, under setting [2], the AC50 was 3.98 µM [rising, single point].

For `O=C(c1ccccc1NS(=O)(=O)c1cccc(C(F)(F)F)c1)N1CCc2ccccc21`, under setting [2], the AC50 was 35.5 µM [rising, single point].

For `O=C(Nc1nnc(-c2ccccn2)o1)c1cccc(Br)c1`, the AC50 under setting [2] is 20 µM [rising, single point].

As for `Cc1ccc(C)c(NC(=O)N2CCN(c3nnc(C)c4c(C)n(-c5ccccc5)nc34)CC2)c1`, the AC50 under setting [2] was 0.251 µM [falling, full curve, poor fit].

Regarding `Cc1cc(C)nc(/N=C(\N)Nc2ccc(OCc3ccccc3)cc2)n1`, under setting [1], the AC50 was 6.31 µM [falling, single point].

As to `Cc1scc(-c2n[nH]c(=S)n2C(C)c2ccccc2)c1C` (stereo not given), the AC50 under setting [1] was 14.1 µM [rising, single point] and the AC50 under setting [2] was 31.6 µM [rising, single point].

Regarding `Cc1oc(-c2ccc(-c3ccccc3)cc2)nc1CN1CCN(CC(=O)N(C)C)CC1`, the AC50 runs as follows: under setting [1], 20 µM [falling, partial curve, poor fit]; under setting [2], 14.1 µM [falling, partial curve, poor fit].

With `N#CCCn1c(Cl)nc2ccccc21`, the AC50 under setting [1] was 3.16 µM [rising, single point] and the AC50 under setting [2] is 3.55 µM [rising, partial curve].

Take `O=C(CSc1nc2ccccc2c(=O)n1Cc1ccc(C(=O)NC2CC2)cc1)NCc1ccco1`: the AC50 under setting [2] is 35.5 µM [rising, single point].

In the case of `Cc1c(C(=O)N(C)c2ccccc2)sc2nc(-c3ccc(F)cc3)cn12`, the AC50 runs as follows: under setting [1], 6.31 µM [rising, partial curve]; under setting [2], 3.98 µM [rising, full curve, poor fit].

On to `Cc1c(NC(=O)CCCCCN2C(=O)c3ccccc3C2=O)c(=O)n(-c2ccccc2)n1C`, for which the AC50 was 0.891 µM [falling, partial curve] under setting [1] and 1.41 µM [falling, full curve, poor fit] under setting [2].

With `NNc1nc2c(Cl)ccc(Cl)c2s1`, the AC50 under setting [2] was 15.8 µM [rising, single point].

For the compound `CC(CN1CCCCC1)NC(=O)c1cc(-c2ccccn2)nc2ccc(Cl)cc12` (stereo not given), the AC50 under setting [1] is 35.5 µM [falling, single point].

Consider `O=C(CN1CCN(S(=O)(=O)c2ccc3ccccc3c2)CC1)Nc1ccc2c(c1)CCC2`, for which the AC50 reads like this: under setting [1], 28.2 µM [rising, single point]; under setting [2], 35.5 µM [rising, single point].

As for `O=c1[nH]cnc2c1ncn2Cc1ccc([N+](=O)[O-])cc1`, the AC50 under setting [2] is 22.4 µM [falling, partial curve, poor fit].

In the case of `CCn1c(CSCc2ccccc2)n[nH]c1=S`, the AC50 under setting [1] is 0.282 µM [falling, single point].

As to `Cc1[nH]n(-c2ccccc2)c(=O)c1C=NC1CCCCCC1`, the AC50 under setting [1] was 0.0141 µM [falling, full curve, poor fit] and the half-maximal activity concentration (AC50) under setting [2] is 0.0501 µM [falling, full curve, poor fit].

For `CCCN(CCC)c1nc(NC2CCN(C(=O)OCC)CC2)nc(OC)n1`, the AC50 reads like this: under setting [1], 8.91 µM [rising, partial curve]; under setting [2], 10 µM [rising, partial curve].

Take `Cc1cc2cc(CN(Cc3ccc4c(c3)OCO4)C(=O)c3ccco3)c(=O)[nH]c2cc1C`: under setting [1], the AC50 was 35.5 µM [rising, single point].

Take `CCc1nnc(NC(=O)c2ccc3ncsc3c2)s1`: the AC50 under setting [2] was 0.891 µM [falling, full curve, poor fit].

Turning to `Cc1ccc(C)c(N2CCN(C(=O)Cc3cn(C)c4ccccc34)CC2)c1`, the AC50 by setting is: under setting [1], 14.1 µM [rising, partial curve]; under setting [2], 15.8 µM [rising, partial curve].
